# Results taken from publication PMC11125477 (PLOS ONE, 2024).
# The chains behind the UniProt entries cited, without tags or fusion partners. Residues count along the entry.
# UniProt Q63191, residues 22-1216: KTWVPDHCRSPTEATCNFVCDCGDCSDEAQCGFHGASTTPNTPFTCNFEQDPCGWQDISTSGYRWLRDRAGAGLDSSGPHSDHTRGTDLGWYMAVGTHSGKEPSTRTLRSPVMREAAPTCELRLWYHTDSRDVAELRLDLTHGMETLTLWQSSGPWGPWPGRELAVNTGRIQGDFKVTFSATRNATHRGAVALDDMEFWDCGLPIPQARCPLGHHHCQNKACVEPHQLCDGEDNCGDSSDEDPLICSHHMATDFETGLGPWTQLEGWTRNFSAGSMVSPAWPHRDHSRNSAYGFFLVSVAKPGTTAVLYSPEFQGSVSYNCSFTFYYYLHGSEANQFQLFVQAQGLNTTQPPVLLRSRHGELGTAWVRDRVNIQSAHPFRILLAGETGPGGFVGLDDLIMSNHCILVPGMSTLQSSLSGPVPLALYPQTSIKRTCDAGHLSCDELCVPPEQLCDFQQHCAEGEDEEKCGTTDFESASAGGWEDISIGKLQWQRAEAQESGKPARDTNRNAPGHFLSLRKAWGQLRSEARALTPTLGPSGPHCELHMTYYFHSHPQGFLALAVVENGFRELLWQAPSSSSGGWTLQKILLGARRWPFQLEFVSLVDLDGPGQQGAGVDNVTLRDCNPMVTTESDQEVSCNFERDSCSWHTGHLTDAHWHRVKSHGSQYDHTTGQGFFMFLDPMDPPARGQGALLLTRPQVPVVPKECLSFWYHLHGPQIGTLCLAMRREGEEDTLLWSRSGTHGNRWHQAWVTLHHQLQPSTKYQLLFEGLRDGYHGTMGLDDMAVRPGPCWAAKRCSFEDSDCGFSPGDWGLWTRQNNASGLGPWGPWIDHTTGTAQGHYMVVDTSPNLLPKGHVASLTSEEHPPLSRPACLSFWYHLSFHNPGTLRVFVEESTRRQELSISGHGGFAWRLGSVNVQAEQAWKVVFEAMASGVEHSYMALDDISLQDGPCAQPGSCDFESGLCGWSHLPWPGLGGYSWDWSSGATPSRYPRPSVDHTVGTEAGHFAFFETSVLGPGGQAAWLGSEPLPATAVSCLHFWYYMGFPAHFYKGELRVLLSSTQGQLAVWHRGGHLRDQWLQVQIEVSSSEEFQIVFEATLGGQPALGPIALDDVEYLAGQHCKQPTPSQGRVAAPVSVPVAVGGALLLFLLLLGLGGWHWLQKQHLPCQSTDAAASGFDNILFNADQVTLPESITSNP
# UniProt O15169: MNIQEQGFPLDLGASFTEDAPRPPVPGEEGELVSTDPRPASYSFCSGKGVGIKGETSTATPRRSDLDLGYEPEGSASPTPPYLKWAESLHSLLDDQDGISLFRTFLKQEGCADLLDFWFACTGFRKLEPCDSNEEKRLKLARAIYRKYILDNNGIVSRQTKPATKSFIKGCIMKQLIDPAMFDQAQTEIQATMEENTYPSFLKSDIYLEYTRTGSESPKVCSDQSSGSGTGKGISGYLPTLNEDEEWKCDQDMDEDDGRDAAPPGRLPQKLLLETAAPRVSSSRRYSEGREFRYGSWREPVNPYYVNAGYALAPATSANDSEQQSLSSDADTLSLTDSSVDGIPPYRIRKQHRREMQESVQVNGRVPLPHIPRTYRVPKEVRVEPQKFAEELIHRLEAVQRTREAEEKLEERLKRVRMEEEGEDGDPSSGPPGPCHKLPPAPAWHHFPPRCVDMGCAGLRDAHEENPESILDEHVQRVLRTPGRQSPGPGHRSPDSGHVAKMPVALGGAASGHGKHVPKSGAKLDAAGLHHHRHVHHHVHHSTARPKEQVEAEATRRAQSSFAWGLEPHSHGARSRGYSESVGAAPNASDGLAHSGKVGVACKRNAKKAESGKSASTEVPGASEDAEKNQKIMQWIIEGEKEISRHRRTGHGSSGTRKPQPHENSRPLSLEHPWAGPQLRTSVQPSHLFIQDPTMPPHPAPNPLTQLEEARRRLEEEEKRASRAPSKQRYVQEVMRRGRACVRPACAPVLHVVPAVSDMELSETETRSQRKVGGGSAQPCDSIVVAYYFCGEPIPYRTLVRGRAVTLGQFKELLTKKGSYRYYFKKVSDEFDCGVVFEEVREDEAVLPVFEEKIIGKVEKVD
# Results are given in words; binding and its absence hold for the method and conditions named. In cells and extracts the contact can be indirect. Some entries that bind do so weakly or less than the wild type.
# Columns and labels:
# [1] = target: T1, MAMDC4 (UniProt Q63191 22-1216); test: co-IP; HEK293 cells overexpressing MAMDC4, control or 50% Wnt3a conditioned media for 6hrs; NP-40 lysis buffer; lysates precipitated with anti-MAMDC4 (hybridoma supernatant) or control IgG on Protein G Dynabeads overnight at 4°C; immunoblot; input 1/50th of lysate
# T1 construct: HEK293 cells also hold endogenous (human) MAMDC4, which the anti-MAMDC4 antibody may precipitate as well; also called Endotubin; AEGP; source: HEK293, transfected (overexpressed), in lysate
# [2] = target: AMOT (human (endogenous in HEK293)) (UniProt Q4VCS5); test: co-IP; HEK293 cells transfected with MAMDC4 or empty vector, or expressing control or MAMDC4 shRNA; NP-40 lysis buffer; lysates precipitated with rabbit anti AMOT on Protein G Dynabeads overnight at 4°C; immunoblot
binding [1],binding [2],Substance
binds,,Axin1 (from UniProt O15169 1-862)
binds,binds,β-catenin (from UniProt P35222 1-781)
